Data as given in PubChem BioAssay AID602196 (INSERM, 2012)

Assay: 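Knock-downs that protect lung cancer cells from cisplatin or sensitise them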
Cell system: human A549 lung cancer cells
Reagents: siRNA pair against human genes
Duration: 48 h transfection before cisplatin; time from cisplatin to read-out not stated
Challenge: cisplatin at a dose killing half of control-siRNA cells; exact dose and duration not given
Measurement: 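Cisplatin cell death as a shift from the 50% death seen with control siRNA; siRNAs toxic or growth-blocking alone scored 0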
Direction: two-siRNA summed score (-2 to +2): higher = both siRNAs protect from cisplatin killing; -2 means both sensitise; mean protection from cisplatin (shift in death) and protection from cisplatin (shift in death), siRNA C and protection from cisplatin (shift in death), siRNA D: higher = protection from cisplatin killing
Active means: 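Each siRNA scores 0 if harmful alone by LDH or WST-1, otherwise +1 if it reduces and -1 if it increases cisplatin killing; a gene is active when both siRNAs agree (sum +2 or -2)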
Meaning of the calls: active = both siRNAs shift cisplatin killing the same way; inactive = no consistent shift, or siRNA harmful alone
The deposit covers about 23,000 reagents; below is a part drawn at random. 455 of them (2%) count as active. 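Active includes both protection and sensitisation; some change values fall well beyond the stated -50 to +50 range.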 Entries without a mark were called inactive. The numbers tell different reagents against one gene apart. The record does not give: the amount of reagent.

no.	gene	reagent no.	two-siRNA summed score (-2 to +2)	mean protection from cisplatin (shift in death) (%)	protection from cisplatin (shift in death), siRNA C (%)	protection from cisplatin (shift in death), siRNA D (%)
1	HCFC1	1	0	-1.7	-4.7	1.2
2	GIP	1	0	0.9	18.5	-16.8
3	bA395L14.13 (retired record)	1	0	7.4	8.6	6.2
4	MAGEA5P	1	0	9.1	8.9	9.3
5	ARHGEF4	1	0	-22	-9.9	-34
6	FAM131C2P	1	0	8.9	9.3	8.5
7	RCOR1	1	0	4	8.7	-0.6
8	TBL2	1	0	10.6	-5.1	26.3
9	UGT2B11	1	1	17.2	12.5	21.8
10	KRT26	1	0	-10.4	-6.2	-14.6
11	DUOX2	1	0	-3.2	-7.8	1.4
12	BHLHA15	1	0	-2.9	-15.8	10.1
13	TAS2R50	1	0	-4.2	-14.8	6.3
14	HDGFL1	1	-1	-5	-17.4	7.4
15	ST3GAL6	1	1	15	6.5	23.6
16	TLX2	1	1	4.4	-14.2	23
17	LOC441708	1	0	1.1	-1.7	3.8
18	SENP7	1	-1	-10	-20.7	0.8
19	LOC391444	1	0	6.2	5	7.3
20	FXYD2	1	-1	-6.6	3.1	-16.4
21	DYNLT1	1	0	-6.7	-6.6	-6.9
22	KAT6B	1	0	-18.9	-23.4	-14.5
23	LOC439958	1	0	4.9	13.8	-4.1
24	KCNG1	1	-1	-10.2	0.4	-20.8

A portion from the list above:
no.	gene	reagent no.	two-siRNA summed score (-2 to +2)	mean protection from cisplatin (shift in death) (%)	protection from cisplatin (shift in death), siRNA C (%)	protection from cisplatin (shift in death), siRNA D (%)
2	GIP	1	0	0.9	18.5	-16.8
3	bA395L14.13 (retired record)	1	0	7.4	8.6	6.2
4	MAGEA5P	1	0	9.1	8.9	9.3

The list goes on:
no.	gene	reagent no.	two-siRNA summed score (-2 to +2)	mean protection from cisplatin (shift in death) (%)	protection from cisplatin (shift in death), siRNA C (%)	protection from cisplatin (shift in death), siRNA D (%)
25	LOC440886	1	0	11.3	14.2	8.4
26	SYDE1	1	0	14.2	19.2	9.1
27	LOC105378085	1	0	9.1	4.2	14.1
28	DMWD	1	0	2.1	12	-7.8
29	KIAA0962	1	0	-5.6	-7.7	-3.5
30	LOC388760	1	1	12.5	24.5	0.5
31	PDZD2	1	-1	-15.7	-10.9	-20.6
32	CEP170B	1	1	13.6	24.8	2.4
33	GPATCH2L	1	1	20.6	33.4	7.7
34	LOC389669	1	0	6.2	9.8	2.7
35	LOC390856	1	1	13.7	11.5	15.8
36	DUSP5	1	1	4.9	1.6	8.2
37	HDAC6	1	0	3.7	-1.1	8.6
38	KLHL25	1	0	-8.5	-2.9	-14
39	BPIFA3	1	0	2.8	12.7	-7.1
40	BPIFA3	2	0	5.9	-1.4	13.2
